This passage reports log2 fold change results from the supplement of paper PMC12819154, “High-throughput peptide-centric local stability assay extends protein–ligand identification to membrane proteins, tissues and bacteria” (Nature Structural & Molecular Biology, 2025).

Protein sequences, listed by entry. Tags and fused reporters are not part of them. Lines headed by an entry give the natural chain unless they say otherwise; changes in a name come on top.
UniProt P35611: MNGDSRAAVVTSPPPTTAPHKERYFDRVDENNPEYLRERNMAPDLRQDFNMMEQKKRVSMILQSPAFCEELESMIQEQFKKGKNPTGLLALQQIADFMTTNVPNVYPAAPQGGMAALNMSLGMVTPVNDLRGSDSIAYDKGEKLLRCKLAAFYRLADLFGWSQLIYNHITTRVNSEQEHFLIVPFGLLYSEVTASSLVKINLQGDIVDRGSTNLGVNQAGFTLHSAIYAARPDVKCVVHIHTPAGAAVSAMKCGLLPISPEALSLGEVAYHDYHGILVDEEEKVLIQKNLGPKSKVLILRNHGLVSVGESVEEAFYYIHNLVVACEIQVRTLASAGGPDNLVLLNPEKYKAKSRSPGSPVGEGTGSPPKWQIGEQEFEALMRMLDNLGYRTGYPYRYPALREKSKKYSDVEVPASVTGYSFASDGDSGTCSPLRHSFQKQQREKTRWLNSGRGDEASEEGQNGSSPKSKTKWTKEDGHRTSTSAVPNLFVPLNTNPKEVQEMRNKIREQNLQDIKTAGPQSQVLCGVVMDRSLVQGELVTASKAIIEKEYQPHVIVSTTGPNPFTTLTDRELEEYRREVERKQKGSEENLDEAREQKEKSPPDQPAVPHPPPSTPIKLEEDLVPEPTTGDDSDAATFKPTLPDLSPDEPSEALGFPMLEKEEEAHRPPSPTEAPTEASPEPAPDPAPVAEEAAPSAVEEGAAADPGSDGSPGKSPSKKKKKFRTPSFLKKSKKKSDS
UniProt P29966: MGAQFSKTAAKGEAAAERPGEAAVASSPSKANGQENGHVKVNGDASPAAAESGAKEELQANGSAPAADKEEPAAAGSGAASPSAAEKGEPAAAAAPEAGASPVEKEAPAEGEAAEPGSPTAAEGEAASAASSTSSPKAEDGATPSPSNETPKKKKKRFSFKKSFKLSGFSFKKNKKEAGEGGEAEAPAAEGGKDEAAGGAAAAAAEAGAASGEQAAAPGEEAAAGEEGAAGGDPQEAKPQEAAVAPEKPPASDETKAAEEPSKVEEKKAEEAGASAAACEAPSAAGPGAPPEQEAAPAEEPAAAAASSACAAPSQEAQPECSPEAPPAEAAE
UniProt P30740: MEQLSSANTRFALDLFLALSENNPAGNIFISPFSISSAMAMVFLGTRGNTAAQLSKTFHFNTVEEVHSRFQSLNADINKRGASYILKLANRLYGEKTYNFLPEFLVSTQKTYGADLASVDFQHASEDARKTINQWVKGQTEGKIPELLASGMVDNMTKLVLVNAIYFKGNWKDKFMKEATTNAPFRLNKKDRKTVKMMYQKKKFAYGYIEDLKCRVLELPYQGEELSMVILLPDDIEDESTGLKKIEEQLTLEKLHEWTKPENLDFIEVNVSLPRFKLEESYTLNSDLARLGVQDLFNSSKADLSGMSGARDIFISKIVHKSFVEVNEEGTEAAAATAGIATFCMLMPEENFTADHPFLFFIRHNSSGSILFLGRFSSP
UniProt P37198: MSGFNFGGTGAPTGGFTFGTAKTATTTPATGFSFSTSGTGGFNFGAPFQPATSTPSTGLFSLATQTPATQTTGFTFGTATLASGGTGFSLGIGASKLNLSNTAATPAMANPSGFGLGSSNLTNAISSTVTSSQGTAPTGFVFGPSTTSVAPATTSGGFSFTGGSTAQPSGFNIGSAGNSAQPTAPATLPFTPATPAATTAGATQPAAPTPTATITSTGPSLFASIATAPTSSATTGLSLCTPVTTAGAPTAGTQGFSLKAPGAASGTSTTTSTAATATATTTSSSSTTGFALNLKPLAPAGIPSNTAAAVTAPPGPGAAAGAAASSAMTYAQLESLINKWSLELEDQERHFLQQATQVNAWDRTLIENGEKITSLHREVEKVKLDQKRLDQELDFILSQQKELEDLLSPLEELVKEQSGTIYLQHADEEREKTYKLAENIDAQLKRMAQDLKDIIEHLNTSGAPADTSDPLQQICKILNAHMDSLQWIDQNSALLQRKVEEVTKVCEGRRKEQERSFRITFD
UniProt P42331: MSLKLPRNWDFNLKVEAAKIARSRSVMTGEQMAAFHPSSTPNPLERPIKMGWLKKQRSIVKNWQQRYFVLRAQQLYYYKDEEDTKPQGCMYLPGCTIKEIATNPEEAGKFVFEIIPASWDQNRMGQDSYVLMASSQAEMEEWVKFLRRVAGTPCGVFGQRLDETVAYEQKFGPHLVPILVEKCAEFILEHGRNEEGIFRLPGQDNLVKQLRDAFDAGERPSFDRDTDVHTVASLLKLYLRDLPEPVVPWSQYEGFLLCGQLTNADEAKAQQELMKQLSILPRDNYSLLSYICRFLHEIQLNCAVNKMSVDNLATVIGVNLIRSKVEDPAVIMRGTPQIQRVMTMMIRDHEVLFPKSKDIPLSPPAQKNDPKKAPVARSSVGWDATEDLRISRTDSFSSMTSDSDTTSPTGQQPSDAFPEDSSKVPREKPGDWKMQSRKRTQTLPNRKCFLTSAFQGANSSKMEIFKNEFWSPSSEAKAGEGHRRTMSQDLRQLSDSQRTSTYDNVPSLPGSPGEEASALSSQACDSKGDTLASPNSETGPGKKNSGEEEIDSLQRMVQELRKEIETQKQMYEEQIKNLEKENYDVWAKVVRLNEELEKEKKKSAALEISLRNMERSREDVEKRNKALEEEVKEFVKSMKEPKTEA
UniProt P40926: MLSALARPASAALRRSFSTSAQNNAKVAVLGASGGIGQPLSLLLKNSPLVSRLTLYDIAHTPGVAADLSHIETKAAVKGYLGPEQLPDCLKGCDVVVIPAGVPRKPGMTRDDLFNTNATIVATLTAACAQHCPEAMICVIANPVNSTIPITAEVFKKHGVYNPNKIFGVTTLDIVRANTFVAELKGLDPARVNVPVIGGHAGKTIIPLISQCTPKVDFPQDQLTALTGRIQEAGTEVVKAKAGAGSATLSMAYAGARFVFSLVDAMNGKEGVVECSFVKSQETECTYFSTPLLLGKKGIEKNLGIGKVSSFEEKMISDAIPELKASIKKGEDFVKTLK
UniProt P33316: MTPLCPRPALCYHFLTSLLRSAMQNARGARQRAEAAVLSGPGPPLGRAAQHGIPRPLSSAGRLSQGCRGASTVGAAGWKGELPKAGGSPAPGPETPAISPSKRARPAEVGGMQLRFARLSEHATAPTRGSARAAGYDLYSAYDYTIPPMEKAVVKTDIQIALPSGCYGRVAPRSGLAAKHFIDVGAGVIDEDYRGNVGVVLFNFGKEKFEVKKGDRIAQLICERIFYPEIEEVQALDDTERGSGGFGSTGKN
UniProt P40337, whole entry, looked up: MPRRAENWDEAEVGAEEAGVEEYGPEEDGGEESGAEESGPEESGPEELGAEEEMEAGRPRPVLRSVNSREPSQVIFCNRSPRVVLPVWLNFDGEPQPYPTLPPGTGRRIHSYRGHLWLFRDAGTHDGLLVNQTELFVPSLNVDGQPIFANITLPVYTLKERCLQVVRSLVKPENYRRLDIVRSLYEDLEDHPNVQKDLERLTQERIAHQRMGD
UniProt P32121, whole entry: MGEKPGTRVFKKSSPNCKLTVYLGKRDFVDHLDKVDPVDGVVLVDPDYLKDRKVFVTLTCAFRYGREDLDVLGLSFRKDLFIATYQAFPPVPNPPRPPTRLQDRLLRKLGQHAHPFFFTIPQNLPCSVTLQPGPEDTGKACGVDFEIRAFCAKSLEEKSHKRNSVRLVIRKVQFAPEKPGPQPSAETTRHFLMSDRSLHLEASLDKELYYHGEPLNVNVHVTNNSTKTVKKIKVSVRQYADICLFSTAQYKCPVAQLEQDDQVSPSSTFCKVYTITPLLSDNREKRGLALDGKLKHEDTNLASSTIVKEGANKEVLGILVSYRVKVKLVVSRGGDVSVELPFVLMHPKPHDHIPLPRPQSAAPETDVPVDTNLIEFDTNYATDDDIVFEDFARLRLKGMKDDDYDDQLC
UniProt P35241, whole entry: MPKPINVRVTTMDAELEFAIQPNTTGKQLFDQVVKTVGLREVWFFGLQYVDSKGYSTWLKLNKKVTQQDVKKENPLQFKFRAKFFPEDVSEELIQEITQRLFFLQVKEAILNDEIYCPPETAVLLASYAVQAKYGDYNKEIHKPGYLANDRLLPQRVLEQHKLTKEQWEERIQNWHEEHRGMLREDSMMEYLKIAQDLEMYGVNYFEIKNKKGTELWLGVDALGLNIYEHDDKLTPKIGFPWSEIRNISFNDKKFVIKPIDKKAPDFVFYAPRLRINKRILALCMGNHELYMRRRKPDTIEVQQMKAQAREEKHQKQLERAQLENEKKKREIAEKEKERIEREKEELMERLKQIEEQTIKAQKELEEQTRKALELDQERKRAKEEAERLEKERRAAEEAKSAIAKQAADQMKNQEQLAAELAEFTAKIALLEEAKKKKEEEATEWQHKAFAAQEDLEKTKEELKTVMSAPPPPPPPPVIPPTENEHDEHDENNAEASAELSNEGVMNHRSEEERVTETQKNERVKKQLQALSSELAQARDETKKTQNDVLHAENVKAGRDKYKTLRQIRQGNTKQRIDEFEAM
UniProt P30086: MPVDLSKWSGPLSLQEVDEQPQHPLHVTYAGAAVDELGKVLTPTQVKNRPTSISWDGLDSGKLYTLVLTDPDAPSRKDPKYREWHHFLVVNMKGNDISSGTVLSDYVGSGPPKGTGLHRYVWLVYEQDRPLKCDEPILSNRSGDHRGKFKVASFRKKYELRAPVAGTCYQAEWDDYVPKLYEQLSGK
UniProt P31327: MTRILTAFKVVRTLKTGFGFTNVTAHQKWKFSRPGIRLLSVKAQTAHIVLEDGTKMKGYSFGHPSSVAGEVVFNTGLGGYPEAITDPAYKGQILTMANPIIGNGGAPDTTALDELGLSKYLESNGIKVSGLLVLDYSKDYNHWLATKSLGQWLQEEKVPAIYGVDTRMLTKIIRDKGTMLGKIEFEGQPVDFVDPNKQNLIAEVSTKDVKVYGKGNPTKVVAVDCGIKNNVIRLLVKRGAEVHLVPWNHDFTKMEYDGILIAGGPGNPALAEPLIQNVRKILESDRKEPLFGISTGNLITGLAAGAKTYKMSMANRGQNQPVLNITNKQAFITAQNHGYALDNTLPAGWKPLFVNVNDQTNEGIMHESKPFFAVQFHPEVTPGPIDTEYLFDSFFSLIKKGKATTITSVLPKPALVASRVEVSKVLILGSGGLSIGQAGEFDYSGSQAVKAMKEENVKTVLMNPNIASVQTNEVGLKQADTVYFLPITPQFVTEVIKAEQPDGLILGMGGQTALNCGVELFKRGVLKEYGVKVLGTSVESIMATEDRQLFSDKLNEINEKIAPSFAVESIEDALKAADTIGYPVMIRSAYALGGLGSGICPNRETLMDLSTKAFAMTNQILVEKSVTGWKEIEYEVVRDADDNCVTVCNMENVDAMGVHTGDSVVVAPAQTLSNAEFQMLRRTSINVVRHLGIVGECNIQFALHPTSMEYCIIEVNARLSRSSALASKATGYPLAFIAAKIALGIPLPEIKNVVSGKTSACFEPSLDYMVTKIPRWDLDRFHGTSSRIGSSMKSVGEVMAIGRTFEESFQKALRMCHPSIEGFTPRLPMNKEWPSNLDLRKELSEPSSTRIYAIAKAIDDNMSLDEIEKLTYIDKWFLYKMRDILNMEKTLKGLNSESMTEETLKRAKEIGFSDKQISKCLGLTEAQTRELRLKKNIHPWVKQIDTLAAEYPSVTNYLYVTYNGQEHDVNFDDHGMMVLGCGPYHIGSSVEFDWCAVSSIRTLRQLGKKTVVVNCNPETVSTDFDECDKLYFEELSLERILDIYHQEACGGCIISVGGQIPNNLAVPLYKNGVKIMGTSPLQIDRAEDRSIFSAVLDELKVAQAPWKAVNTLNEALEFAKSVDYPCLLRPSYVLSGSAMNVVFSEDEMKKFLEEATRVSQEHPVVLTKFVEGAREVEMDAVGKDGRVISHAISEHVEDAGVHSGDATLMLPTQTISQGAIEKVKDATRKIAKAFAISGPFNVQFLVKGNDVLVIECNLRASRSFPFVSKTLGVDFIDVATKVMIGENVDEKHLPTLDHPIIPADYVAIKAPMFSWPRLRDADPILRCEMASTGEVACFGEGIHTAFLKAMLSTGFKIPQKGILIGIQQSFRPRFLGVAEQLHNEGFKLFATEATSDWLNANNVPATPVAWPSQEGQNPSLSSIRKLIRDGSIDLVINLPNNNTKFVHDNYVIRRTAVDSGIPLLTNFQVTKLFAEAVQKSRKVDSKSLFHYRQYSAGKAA
UniProt P43686, whole entry: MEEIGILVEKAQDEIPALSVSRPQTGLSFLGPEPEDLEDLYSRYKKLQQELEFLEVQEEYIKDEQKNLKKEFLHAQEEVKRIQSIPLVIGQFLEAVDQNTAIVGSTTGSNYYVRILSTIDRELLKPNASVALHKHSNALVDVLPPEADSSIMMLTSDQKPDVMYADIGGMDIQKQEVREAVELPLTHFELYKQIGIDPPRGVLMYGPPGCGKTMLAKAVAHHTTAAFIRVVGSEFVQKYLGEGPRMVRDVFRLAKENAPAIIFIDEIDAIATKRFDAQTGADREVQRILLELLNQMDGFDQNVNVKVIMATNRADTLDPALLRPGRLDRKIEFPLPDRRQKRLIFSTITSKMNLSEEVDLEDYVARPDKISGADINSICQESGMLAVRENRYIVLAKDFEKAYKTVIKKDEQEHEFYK

The other results are listed elsewhere or left out. Most entries show no effect beyond the scatter of the controls.

Compound in the assay: CN[C@@H]1C[C@H]2O[C@@](C)([C@@H]1OC)n1c3ccccc3c3c4c(c5c6ccccc6n2c5c31)C(=O)NC4 [staurosporine]
As to the kind of experiment: log2 fold change of tryptic peptide abundance, ligand vs vehicle (limited proteolysis) (log2 ratio); higher = more trypsin-susceptible (destabilized). The settings on record: ligand concentration: 20 uM; sample: K562 cleared lysate; digestion: 4 min, 22 C (HT-PELSA RT4min, Orbitrap Astral).
In the case of “STIP1 (peptide sequence: FMNPFNMPNLYQKLESDPRTR, peptide start residue: 124) (UniProt P31948)”, the log2 fold change worked out at 0.311.

For the target “EIF2S3 (peptide sequence: LDDPSCPRPECYR, peptide start residue: 91) (UniProt P41091)”, the log2 fold change is -0.222. The result for “ABL2 (peptide sequence: HTPADVQLIGTDSQGNK, peptide start residue: 941) (UniProt P42684)” reads -0.28.

For “CMPK1 (peptide sequence: IVPVEITISLLK, peptide start residue: 62) (UniProt P30085)”, the log2 fold change is -0.133. With “ADD1 (peptide sequence: QDFNMMEQKK, peptide start residue: 47) (UniProt P35611)”, the log2 fold change was -0.737.

With “GPD2 (peptide sequence: VIFFLPWQK, peptide start residue: 340) (UniProt P43304)”, the log2 fold change is -0.139. The result for “MARCKS (peptide sequence: GEAAAERPGEAAVASSPSK, peptide start residue: 12) (UniProt P29966)” reads -0.0969. On to “SERPINB1 (peptide sequence: FQSLNADINKR, peptide start residue: 70) (UniProt P30740)”, for which the log2 fold change is 0.221. The figure for “CHKA (peptide sequence: GLREDEFHISVIR, peptide start residue: 105) (UniProt P35790)” is -0.468; for “KIF5B (peptide sequence: LRVEHEK, peptide start residue: 747) (UniProt P33176)” it is 0.195.

Consider “NUP62 (peptide sequence: ILNAHMDSLQWIDQNSALLQR, peptide start residue: 477) (UniProt P37198)”, for which the log2 fold change turned out to be 0.305. The result for “MAGEA4 (peptide sequence: YEFLWGPR, peptide start residue: 1067) (UniProt P43358)” reads 0.0361.

Regarding “ARHGAP25 (peptide sequence: ALEEEVKEFVK, peptide start residue: 626) (UniProt P42331)”, the log2 fold change is -0.223. The figure for “MKI67 (peptide sequence: VDMKEEPLAVSK, peptide start residue: 2489) (UniProt P46013)” is -0.347; for “MDH2 (peptide sequence: IFGVTTLDIVR, peptide start residue: 166) (UniProt P40926)” it is 0.148; for “MSH2 (peptide sequence: LDSSAQFGYYFR, peptide start residue: 513) (UniProt P43246)” it is -0.744.

“RFC1 (peptide sequence: SLVHYCFDLR, peptide start residue: 762) (UniProt P35251)”: the log2 fold change is -0.255.

For the target “DUT (peptide sequence: ARPAEVGGMQLR, peptide start residue: 104) (UniProt P33316)”, the log2 fold change is -0.198.

Regarding “HMGCL (peptide sequence: VAQATCKL, peptide start residue: 318) (UniProt P35914)”, the log2 fold change was -0.196.

As for “RPL9 (peptide sequence: TVIVKGPR, peptide start residue: 24) (UniProt P32969)”, the log2 fold change amounted to 0.252.

Consider “ARID4A (peptide sequence: ISFLQEK, peptide start residue: 1186) (UniProt P29374)”, for which the log2 fold change is 0.399. The figure for “VHL (peptide sequence: SLYEDLEDHPNVQKDLER, peptide start residue: 183) (UniProt P40337)” is -0.424. For the target “RPL13A (peptide sequence: KQAEKNVEK, peptide start residue: 179) (UniProt P40429)”, the log2 fold change is 1.03.

“MYH11 (peptide sequence: NTDQASMPDNTAAQK, peptide start residue: 359) (UniProt P35749)”: the log2 fold change was -0.206.

Regarding “ARRB2 (peptide sequence: LKHEDTNLASSTIVK, peptide start residue: 294) (UniProt P32121)”, the log2 fold change was -0.217. The figure for “RDX (peptide sequence: KALELDQER, peptide start residue: 371) (UniProt P35241)” is 0.196; for “CDKN2C (peptide sequence: NHKGDTACDLAR, peptide start residue: 134) (UniProt P42773)” it is 1.19. The result for “PEBP1 (peptide sequence: LYEQLSGK, peptide start residue: 180) (UniProt P30086)” reads 0.0451; that for “CPS1 (peptide sequence: GILIGIQQSFRPR, peptide start residue: 1361) (UniProt P31327)”, -0.0154. Take “CDA (peptide sequence: AVSEGYKDFR, peptide start residue: 74) (UniProt P32320)”: the log2 fold change was determined as 0.0493. The figure for “PAFAH1B1 (peptide sequence: KWTSVIR, peptide start residue: 54) (UniProt P43034)” is 0.35; for “POLR2B (peptide sequence: LLFQELMSMSIAPR, peptide start residue: 1157) (UniProt P30876)” it is -0.354; for “ADSL (peptide sequence: KVDIEVLSVLASLGASVHK, peptide start residue: 246) (UniProt P30566)” it is -0.282. The figure for “PSMC4 (peptide sequence: MEEIGILVEK, peptide start residue: 1) (UniProt P43686)” is -0.263; for “NKTR (peptide sequence: LSDPCSSR, peptide start residue: 389) (UniProt P30414)” it is -0.27; for “BSG (peptide sequence: GSDQAIITLR, peptide start residue: 308) (UniProt P35613)” it is 0.258. The result for “ECHS1 (peptide sequence: NNTVGLIQLNRPK, peptide start residue: 44) (UniProt P30084)” reads 0.3; that for “RXRB (peptide sequence: VYASLETYCK, peptide start residue: 467) (UniProt P28702)”, -0.289; that for “CA8 (peptide sequence: DCEVTNDGHTIQVILK, peptide start residue: 79) (UniProt P35219)”, -0.279.
